From PubChem BioAssay AID2685 (National Center for Advancing Translational Sciences (NCATS), 2010)
Some of the results follow. These are further read-outs of the screen, such as a control signal, another cell line or another target. No call is given for them. The list favours compounds with an active or inconclusive main result. Potencies come from curve fits of mixed quality, noted in brackets.

Experiment: qHTS Assay for Lipid Storage Modulators in Drosophila S3 Cells;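 for cell number change: cells counted by Cell Tracker Red CMTPX staining in the red channel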
Details: BODIPY lipid droplet fluorescence, 18-24 h; for cell number change: measured here: cell count max response, cells fed with added oleic acid
How it was run: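 Laser-scanning cytometry quantifies lipid droplet accumulation (500–530 nm total intensity; droplet/cell object ratio) in oleic acid-fed (400 uM added) Drosophila S3 cells treated with a concentration series. 20 uM Triacsin C defined 100% inhibition.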

[1] = measured here: cell number channel AC50, cells fed with added oleic acid
[2] = measured here: lipid fluorescence (Fed channel) AC50, cells fed with added oleic acid

Compound | cell number change | AC50 [1] | AC50 [2]
O=C(c1cccc(F)c1)N1CCN(C(=O)C2CC2)CC1 | -20.5% | 0.0058 µM [falling, full curve, poor fit] | 0.00461 µM [falling, full curve, poor fit]
O=C1c2ccccc2C2=Nc3ccccc3SC(c3cccc(F)c3)C12 (configuration not stated) | -45.9% | 29.1 µM [falling, single point] | 1.16 µM [rising, single point]
COc1ccc(-c2c(C)c3cc(O)ccc3oc2=O)cc1 | -23.3% | – | 18.4 µM [falling, single point]
Cc1cc(S(=O)(=O)Nc2ccc(C(=O)NCc3cccnc3)cc2)ccc1F | -24.8% | – | 6.51 µM [falling, single point]
Cc1ccc(CC2C(=O)N(c3ncccn3)C(=O)C2C)cc1 (configuration not stated) | -19.4% | 0.164 µM [falling, full curve, poor fit] | 0.651 µM [falling, full curve, poor fit]
O=c1[nH]c(/C=C/c2ccccc2OC(F)F)nc2c1cnn2-c1ccccc1 | -10.3% | – | –
Fc1ccc(-c2csc3ncnc(Cl)c23)cc1 | -31.7% | 7.31 µM [falling, partial curve] | 16.4 µM [falling, partial curve, poor fit]
O=c1oc2ccc([N+](=O)[O-])cc2c(N2CCOCC2)c1[N+](=O)[O-] | 25.6% | – | 32.6 µM [rising, single point]
COC(=O)Cc1c(C)c2ccc(OCC(=O)N3CCCC3)c(C)c2oc1=O | – | – | 29.1 µM [falling, single point]
CCCOc1ccccc1C1NC(=O)NC(C)=C1C(=O)OCCOC (configuration not stated) | 3.07% | – | 0.146 µM [falling, full curve, poor fit]
CCCCc1c(C)nn(-c2nnc3c4ccccc4n(CC)c3n2)c1C | -52.6% | 11.6 µM [falling, partial curve, poor fit] | 23.1 µM [falling, single point]
Cc1ccc(SCC(=O)NCc2ccncc2)cc1 | 100% | 1.46 µM [rising, partial curve] | 0.731 µM [rising, partial curve, poor fit]
O=C(c1cc(-c2ccccc2)nc2ccccc12)N1CCOCC1 | -18.5% | – | 7.31 µM [rising, partial curve, poor fit]
CN(C)CCn1c2ccccc2c2nc3ccc([N+](=O)[O-])cc3cc21 | – | – | 20.6 µM [falling, single point]
CCOc1ccc(NC(=O)CN(C)C(=O)c2ccc(N3CCCCC3)c([N+](=O)[O-])c2)cc1OCC | – | – | 29.1 µM [rising, single point]

Grouped by structure, the compounds so far with a nitro group on carbon.
Compound | cell number change | AC50 [1] | AC50 [2]
O=c1oc2ccc([N+](=O)[O-])cc2c(N2CCOCC2)c1[N+](=O)[O-] | 25.6% | – | 32.6 µM [rising, single point]
CN(C)CCn1c2ccccc2c2nc3ccc([N+](=O)[O-])cc3cc21 | – | – | 20.6 µM [falling, single point]
CCOc1ccc(NC(=O)CN(C)C(=O)c2ccc(N3CCCCC3)c([N+](=O)[O-])c2)cc1OCC | – | – | 29.1 µM [rising, single point]
